The values that follow come from PMC6538630.

Chains of the proteins cited; added tags and fusions are not shown. Lines headed by an entry give the natural chain unless they say otherwise; changes in a name come on top. A line that says so, or that is headed by a name, gives the form on record, which may keep a tag or linker. Residues count along the entry.
UniProt Q92673: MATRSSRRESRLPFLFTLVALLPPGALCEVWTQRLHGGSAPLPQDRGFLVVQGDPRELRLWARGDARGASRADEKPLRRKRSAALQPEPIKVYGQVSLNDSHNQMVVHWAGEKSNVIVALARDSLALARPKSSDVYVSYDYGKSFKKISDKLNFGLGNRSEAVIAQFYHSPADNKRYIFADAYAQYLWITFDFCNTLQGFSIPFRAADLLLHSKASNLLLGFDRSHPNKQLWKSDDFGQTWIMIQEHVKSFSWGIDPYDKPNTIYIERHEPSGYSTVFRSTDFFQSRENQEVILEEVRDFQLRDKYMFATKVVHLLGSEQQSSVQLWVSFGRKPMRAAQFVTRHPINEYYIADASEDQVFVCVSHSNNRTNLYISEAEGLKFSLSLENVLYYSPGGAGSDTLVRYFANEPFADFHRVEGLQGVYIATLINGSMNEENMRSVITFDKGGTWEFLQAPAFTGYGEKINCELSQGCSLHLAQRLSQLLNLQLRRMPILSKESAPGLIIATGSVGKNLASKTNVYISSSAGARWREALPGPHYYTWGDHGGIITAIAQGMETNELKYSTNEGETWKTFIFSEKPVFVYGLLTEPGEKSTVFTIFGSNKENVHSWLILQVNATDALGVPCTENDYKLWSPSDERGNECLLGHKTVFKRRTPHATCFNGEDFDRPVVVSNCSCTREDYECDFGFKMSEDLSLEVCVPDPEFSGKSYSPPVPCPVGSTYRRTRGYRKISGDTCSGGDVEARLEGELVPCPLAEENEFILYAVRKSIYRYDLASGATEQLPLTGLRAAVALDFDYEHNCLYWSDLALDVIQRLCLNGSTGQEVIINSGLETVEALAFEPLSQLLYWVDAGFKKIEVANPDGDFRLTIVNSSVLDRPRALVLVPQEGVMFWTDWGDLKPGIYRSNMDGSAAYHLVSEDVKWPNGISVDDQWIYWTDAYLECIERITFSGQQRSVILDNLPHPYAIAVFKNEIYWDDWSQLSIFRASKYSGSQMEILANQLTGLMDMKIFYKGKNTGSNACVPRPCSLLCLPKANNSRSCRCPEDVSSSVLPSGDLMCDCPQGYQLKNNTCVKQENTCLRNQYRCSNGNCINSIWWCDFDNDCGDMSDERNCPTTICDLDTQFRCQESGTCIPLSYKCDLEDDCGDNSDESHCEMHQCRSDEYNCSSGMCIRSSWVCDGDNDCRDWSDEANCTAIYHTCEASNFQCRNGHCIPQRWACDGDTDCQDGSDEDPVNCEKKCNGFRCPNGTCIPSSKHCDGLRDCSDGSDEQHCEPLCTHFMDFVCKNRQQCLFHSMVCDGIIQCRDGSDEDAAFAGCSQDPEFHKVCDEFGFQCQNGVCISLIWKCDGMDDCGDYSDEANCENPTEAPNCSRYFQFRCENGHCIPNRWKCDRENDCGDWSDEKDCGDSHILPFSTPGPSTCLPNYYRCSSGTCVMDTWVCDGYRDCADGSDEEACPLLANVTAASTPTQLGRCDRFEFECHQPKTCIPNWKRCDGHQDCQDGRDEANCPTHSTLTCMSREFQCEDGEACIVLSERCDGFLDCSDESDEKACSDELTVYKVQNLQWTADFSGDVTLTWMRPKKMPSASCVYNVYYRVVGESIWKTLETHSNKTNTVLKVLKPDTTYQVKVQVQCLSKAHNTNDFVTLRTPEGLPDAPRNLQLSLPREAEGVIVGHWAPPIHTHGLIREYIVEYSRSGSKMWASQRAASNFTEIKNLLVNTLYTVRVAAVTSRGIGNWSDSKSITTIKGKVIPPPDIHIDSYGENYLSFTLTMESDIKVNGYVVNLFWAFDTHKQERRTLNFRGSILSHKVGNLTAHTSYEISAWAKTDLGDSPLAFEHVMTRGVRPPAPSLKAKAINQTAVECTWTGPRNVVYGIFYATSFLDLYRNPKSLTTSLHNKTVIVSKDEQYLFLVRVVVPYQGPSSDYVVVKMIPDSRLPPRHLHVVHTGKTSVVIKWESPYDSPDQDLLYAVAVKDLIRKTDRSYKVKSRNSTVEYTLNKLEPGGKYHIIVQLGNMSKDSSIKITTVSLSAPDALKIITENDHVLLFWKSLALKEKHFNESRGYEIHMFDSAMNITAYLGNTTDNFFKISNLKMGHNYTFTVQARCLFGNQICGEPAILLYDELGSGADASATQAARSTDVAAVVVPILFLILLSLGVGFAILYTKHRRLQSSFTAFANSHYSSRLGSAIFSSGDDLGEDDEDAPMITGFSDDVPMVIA
myc and 6xHIS-tagged full-length SORLA ECD: residues 82-2137 of Q92673

Assay [1] concerns the target myc and 6xHIS-tagged full-length SORLA ECD (UniProt Q92673). The assay can be described thus: pull-down; purified recombinant myc and 6xHIS-tagged SORLA ECD and ECD fragments as bait; endogenous HER2 from BT474 cell lysate; only the target purified.
The target of another assay is full-length SORLA-GFP (UniProt Q92673). The assay can be described thus: co-IP; SORLA-GFP constructs expressed in MDA-MB-361 cells; lysate (0.5% Triton X-100, 10 mM Pipes pH 6.8, 150 mM NaCl, 150 mM sucrose, 3 mM MgCl2) incubated with GFP-trap beads 1 h at +4 °C; blot for endogenous HER2.
In assay [2] the target is human epidermal growth factor receptor 2 (HER2), endogenous (human (endogenous in MDA-MB-361 and BT474)) (UniProt P04626). The assay can be described thus: co-IP; endogenous proteins in MDA-MB-361 and BT474 lysates (0.5% Triton X-100, 10 mM Pipes pH 6.8, 150 mM NaCl, 150 mM sucrose, 3 mM MgCl2); IP with mouse anti-HER2 antibody overnight at +4 °C, protein-G sepharose; isotype IgG control; blot for SORLA.

These are yes or no findings as the source states them, for the method shown. Binding seen in cells or lysates may run through a third protein. Some results given as binding are weak or reduced against the parent protein; the word gives no strength.

For the substance “human epidermal growth factor receptor 2 (HER2), endogenous (from UniProt P04626 23-1255)”, the binding result (in assay [1]; with full-length SORLA-GFP) was “binds” in each case. For the substance “sortilin-related receptor 1 (SORLA), endogenous (from UniProt Q92673 82-2214)”, in assay [2], the binding result is “binds”.
